Results on 33 targets are retold here after the supplement of paper PMC10849652.

Sequences of proteins named here, by UniProt entry; tags and fusion partners are left off. A change or cut given only in a name is not applied to a line headed by its entry.
UniProt Q86SF2: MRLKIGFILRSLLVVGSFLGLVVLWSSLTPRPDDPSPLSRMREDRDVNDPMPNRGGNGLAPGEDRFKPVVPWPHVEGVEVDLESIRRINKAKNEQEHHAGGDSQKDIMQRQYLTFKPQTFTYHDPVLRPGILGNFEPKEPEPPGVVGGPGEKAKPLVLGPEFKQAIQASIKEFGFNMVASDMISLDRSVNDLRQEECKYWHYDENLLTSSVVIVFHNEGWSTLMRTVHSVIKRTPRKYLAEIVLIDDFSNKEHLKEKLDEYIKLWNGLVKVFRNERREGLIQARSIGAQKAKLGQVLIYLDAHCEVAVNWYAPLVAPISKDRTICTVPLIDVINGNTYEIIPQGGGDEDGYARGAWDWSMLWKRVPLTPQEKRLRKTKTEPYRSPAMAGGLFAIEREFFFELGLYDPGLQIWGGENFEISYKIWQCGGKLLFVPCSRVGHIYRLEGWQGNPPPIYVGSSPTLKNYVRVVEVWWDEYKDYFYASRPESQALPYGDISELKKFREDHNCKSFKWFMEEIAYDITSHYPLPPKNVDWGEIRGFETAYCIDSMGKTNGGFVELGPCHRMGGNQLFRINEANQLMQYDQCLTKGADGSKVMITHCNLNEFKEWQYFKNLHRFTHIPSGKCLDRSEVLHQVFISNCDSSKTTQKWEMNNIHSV
UniProt Q6ZNA5: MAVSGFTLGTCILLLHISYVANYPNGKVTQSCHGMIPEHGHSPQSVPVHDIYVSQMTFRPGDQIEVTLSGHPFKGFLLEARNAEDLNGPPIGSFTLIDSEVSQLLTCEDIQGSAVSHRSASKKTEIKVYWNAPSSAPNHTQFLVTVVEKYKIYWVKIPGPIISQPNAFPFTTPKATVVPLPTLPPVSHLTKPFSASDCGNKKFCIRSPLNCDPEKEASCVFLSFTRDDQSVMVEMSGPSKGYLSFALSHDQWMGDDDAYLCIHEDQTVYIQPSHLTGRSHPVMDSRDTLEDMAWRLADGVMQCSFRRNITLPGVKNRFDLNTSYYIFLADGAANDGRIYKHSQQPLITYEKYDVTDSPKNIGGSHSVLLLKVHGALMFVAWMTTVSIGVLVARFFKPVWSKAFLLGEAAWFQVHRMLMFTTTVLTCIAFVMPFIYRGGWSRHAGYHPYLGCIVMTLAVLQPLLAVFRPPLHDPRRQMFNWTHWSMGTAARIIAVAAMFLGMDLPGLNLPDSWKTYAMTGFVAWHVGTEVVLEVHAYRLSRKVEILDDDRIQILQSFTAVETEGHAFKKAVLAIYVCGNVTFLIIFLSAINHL
UniProt Q96CN9: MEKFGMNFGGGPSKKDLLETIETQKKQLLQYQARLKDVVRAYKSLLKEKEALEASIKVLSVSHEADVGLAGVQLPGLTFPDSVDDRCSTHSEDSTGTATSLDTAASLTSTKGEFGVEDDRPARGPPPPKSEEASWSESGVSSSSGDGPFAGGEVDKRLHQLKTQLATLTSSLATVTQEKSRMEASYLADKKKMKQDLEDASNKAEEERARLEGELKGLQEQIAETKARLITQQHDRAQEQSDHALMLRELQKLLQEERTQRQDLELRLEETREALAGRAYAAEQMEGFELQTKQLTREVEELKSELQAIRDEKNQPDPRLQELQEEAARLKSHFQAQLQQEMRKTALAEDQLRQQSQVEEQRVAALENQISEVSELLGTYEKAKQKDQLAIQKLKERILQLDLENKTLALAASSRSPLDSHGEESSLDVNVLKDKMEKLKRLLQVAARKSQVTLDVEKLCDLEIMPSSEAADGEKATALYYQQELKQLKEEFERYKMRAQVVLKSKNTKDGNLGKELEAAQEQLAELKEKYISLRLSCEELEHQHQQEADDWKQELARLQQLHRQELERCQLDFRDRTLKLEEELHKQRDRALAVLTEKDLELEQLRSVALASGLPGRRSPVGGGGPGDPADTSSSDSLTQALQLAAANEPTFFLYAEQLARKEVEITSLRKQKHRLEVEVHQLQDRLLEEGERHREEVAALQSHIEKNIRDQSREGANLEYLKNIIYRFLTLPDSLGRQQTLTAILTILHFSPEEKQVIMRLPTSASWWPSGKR
UniProt Q06547, whole entry, looked up: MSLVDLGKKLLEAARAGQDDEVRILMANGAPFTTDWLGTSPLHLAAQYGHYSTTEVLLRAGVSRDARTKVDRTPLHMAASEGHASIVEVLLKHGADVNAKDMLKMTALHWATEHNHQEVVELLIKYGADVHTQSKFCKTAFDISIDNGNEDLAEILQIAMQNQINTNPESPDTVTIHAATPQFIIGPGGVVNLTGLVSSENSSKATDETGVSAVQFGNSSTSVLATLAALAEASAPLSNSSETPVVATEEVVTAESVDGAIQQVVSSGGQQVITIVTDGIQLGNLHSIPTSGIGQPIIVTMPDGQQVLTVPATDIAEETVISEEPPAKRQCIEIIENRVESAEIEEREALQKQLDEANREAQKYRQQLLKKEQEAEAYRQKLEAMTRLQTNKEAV
UniProt Q10472: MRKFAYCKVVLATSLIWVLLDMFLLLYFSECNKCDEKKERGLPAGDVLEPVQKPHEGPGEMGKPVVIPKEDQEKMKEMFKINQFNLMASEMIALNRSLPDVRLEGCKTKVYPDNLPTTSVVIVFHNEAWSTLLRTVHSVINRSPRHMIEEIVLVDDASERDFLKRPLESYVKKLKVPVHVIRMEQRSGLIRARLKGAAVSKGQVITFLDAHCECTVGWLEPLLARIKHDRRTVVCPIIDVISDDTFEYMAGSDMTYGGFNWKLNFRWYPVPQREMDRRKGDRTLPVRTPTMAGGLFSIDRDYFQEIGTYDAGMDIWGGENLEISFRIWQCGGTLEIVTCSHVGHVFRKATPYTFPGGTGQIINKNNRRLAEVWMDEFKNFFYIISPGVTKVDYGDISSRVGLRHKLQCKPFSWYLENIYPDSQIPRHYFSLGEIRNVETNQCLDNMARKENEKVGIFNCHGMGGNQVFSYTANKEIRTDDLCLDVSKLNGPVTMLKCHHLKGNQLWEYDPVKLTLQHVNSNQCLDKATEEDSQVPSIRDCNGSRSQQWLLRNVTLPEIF
UniProt P04406: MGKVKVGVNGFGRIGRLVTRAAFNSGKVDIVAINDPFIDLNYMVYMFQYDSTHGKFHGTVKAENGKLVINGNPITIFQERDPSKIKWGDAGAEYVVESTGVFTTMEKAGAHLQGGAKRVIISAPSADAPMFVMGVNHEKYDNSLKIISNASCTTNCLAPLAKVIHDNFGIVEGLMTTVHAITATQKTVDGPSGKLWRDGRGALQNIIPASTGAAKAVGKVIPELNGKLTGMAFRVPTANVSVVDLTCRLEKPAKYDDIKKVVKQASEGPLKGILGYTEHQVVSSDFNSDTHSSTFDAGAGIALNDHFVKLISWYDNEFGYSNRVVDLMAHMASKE
UniProt Q06210: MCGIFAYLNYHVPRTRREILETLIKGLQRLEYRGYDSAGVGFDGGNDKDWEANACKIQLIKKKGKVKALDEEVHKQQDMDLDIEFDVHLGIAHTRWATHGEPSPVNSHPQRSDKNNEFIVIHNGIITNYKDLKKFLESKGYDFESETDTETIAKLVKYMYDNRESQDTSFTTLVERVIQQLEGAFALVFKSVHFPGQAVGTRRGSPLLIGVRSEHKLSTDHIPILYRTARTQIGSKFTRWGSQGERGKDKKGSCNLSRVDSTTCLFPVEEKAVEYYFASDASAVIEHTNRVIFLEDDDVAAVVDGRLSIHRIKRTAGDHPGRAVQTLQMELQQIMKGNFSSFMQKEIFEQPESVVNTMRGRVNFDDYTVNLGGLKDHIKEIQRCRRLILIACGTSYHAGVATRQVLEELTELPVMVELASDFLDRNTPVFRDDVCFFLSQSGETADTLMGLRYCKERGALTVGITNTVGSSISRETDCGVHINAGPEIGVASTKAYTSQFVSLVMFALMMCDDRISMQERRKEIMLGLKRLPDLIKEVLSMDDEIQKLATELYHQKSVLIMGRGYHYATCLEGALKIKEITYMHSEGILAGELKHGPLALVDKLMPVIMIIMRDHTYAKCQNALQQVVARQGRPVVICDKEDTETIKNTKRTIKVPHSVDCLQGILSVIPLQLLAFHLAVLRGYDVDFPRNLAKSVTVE
UniProt P22102: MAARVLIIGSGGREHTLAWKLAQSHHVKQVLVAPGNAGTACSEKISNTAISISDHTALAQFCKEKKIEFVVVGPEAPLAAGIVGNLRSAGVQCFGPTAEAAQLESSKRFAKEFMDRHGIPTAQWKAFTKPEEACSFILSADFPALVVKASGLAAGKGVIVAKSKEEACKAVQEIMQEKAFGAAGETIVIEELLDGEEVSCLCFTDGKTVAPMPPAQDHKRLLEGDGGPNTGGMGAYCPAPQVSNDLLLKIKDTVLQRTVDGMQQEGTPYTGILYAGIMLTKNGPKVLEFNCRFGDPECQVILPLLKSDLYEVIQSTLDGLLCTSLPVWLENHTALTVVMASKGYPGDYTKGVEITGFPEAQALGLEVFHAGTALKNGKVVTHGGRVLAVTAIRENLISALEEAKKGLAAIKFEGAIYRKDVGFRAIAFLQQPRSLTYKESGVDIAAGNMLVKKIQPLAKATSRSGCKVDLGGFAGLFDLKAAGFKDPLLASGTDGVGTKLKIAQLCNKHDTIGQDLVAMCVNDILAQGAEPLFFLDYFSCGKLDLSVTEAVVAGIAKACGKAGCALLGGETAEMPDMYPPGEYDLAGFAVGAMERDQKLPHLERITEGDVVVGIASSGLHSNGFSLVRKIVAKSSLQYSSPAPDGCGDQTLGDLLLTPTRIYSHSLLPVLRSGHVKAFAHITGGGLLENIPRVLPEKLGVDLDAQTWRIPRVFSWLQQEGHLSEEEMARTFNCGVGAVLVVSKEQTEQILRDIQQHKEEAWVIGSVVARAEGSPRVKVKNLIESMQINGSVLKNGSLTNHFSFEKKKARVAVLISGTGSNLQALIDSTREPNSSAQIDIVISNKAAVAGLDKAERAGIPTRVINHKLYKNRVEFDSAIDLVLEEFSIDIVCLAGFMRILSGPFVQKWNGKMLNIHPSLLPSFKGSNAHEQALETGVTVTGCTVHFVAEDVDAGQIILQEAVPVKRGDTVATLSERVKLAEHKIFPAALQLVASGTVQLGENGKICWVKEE
UniProt O15117, whole entry, looked up: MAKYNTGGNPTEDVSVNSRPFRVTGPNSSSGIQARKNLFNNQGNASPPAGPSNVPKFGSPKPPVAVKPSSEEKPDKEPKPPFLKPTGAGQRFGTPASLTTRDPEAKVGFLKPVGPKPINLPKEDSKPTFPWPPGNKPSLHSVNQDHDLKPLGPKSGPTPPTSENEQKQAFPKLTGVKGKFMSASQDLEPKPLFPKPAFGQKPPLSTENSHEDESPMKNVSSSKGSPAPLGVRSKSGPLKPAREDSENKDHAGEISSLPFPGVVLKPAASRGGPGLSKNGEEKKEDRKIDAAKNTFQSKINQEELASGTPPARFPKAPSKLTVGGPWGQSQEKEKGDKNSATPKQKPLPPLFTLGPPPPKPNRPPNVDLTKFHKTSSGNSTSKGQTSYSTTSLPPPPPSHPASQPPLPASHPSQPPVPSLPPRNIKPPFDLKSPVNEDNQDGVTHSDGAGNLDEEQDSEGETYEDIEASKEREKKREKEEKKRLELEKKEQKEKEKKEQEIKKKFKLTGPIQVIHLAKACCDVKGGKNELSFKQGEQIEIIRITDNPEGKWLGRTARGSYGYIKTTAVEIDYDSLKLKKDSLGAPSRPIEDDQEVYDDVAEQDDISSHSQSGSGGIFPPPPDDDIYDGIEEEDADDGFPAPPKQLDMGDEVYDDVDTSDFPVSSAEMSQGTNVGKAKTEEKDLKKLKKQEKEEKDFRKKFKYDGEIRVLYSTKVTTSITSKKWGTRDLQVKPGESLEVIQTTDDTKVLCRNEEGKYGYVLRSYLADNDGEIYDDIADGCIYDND
UniProt P23434: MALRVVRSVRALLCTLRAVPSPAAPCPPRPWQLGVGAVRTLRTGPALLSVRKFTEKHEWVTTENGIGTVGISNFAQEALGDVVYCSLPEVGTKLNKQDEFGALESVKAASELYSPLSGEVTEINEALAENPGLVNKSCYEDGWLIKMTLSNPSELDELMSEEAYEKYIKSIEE
UniProt Q8WXD5: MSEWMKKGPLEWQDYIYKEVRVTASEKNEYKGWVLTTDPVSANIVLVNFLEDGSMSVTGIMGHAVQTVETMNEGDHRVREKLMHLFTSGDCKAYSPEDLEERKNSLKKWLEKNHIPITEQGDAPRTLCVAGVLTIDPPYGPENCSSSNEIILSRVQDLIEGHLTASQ
UniProt Q14376: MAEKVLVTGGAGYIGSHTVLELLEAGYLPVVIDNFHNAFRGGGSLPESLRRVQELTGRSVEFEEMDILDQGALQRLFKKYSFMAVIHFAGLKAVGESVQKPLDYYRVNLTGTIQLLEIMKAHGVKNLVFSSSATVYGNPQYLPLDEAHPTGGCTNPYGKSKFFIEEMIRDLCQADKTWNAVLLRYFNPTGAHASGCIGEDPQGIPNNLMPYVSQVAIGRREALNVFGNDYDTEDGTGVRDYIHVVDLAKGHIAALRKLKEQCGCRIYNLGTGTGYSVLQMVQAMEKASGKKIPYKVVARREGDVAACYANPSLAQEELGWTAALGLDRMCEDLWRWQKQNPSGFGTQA

Some of the results follow.

Compound in the first test: C=CC(=O)N1CCC[C@@H](n2nc(-c3ccc(Oc4ccccc4)cc3)c3c(N)ncnc32)C1 [ibrutinib]
Nature of the test: log2 fold change, soluble protein after heating vs DMSO (PISA); higher = thermal stabilisation; K562 lysate, 10 uM; active = over 0.2 and 3.5 SD of the protein, either way, in both replicates (recomputed). The procedure, abridged: (§1)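 K562 pellets were dounce-homogenised in PBS pH 7.4 with 1 mM MgCl2, and the crude extract at 1 mg/mL protein was treated with 10 μM compound for 30 min. Aliquots were heated for 3 min across 48°C-58°C, pooled, and brought to 0.5% NP-40 at 4°C; soluble protein was the supernatant after 21,000xg for 90 min. Soluble protein was quantified by TMTpro 16plex LC-MS/MS with channel sums equalised, and reported as log2 fold change in thermal stability against DMSO controls, with values from duplicates.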
As to FTSJ1 (UniProt Q9UET6), the log2 fold change is inactive: 0.004.

As for GCC2 (UniProt Q8IWJ2), the log2 fold change is inactive: 0.023.

Consider GALNT7 (UniProt Q86SF2), for which the log2 fold change was inactive: 0.01.

On to GEMIN2 (UniProt O14893), for which the log2 fold change was inactive: -0.044.

GANAB isoform 2 (UniProt Q14697): the log2 fold change was inactive: -0.029.

For the target GALNT5 (UniProt Q7Z7M9), the log2 fold change was inactive: 0.007.

As to GALNT2 (UniProt Q10471), the log2 fold change is inactive: -0.004.

As for G3BP2 (UniProt Q9UN86), the log2 fold change was inactive: -0.019.

As for GBA (UniProt P04062), the log2 fold change was inactive: 0.014.

Turning to FUCA1 (UniProt P04066), the log2 fold change was inactive: 0.015.

As to GATAD2B (UniProt Q8WXI9), the log2 fold change was inactive: -0.058.

On to FREM2 (UniProt Q5SZK8), for which the log2 fold change was inactive: -0.062.

Turning to FRRS1 (UniProt Q6ZNA5), the log2 fold change is inactive: -0.028.

Turning to GCC1 (UniProt Q96CN9), the log2 fold change was inactive: -0.017.

As for FXN (UniProt Q16595), the log2 fold change was inactive: 0.047.

Take GABPB1 (UniProt Q06547): the log2 fold change was inactive: -0.106.

Take FPGT (UniProt O14772): the log2 fold change was inactive: -0.016.

As to GALM (UniProt Q96C23), the log2 fold change was inactive: -0.019.

Take GALNT1 (UniProt Q10472): the log2 fold change is inactive: -0.012.

In the case of GAPDH (UniProt P04406), the log2 fold change was inactive: 0.037.

As for GFER (UniProt P55789), the log2 fold change is inactive: -0.026.

With GFPT1 (UniProt Q06210), the log2 fold change is inactive: 0.014.

For the target GART (UniProt P22102), the log2 fold change is inactive: 0.007.

With GALNT12 (UniProt Q8IXK2), the log2 fold change was inactive: 0.003.

With GFM1 (UniProt Q96RP9), the log2 fold change was inactive: 0.017.

Turning to FYB1 isoform 3 (UniProt O15117), the log2 fold change is inactive: -0.008.

Turning to GABARAP (UniProt O95166), the log2 fold change was inactive: 0.099.

Consider GCSH (UniProt P23434), for which the log2 fold change was inactive: 0.047.

On to GARS1 (UniProt P41250), for which the log2 fold change was inactive: -0.001.

For GEMIN6 (UniProt Q8WXD5), the log2 fold change is inactive: 0.062.

Take GALNS (UniProt P34059): the log2 fold change is inactive: 0.033.

With GALE (UniProt Q14376), the log2 fold change was inactive: -0.014.

As to FSCN1 (UniProt Q16658), the log2 fold change is inactive: -0.001.

Compound in another test: CC(=O)c1cnc2ccc(-c3cc(Cl)c(O)c(Cl)c3)nc2c1N[C@H]1CC[C@H](CN(C)C)CC1
The test is described as above. The procedure, abridged:
as §1
Consider FTSJ1 (UniProt Q9UET6), for which the log2 fold change is inactive: -0.006.

On to GCC2 (UniProt Q8IWJ2), for which the log2 fold change is inactive: -0.014.

As to GALNT7 (UniProt Q86SF2), the log2 fold change is inactive: 0.03.

On to GEMIN2 (UniProt O14893), for which the log2 fold change is inactive: 0.016.

Turning to GANAB isoform 2 (UniProt Q14697), the log2 fold change was inactive: -0.003.

For the target GALNT5 (UniProt Q7Z7M9), the log2 fold change was inactive: 0.003.

For the target GALNT2 (UniProt Q10471), the log2 fold change was inactive: 0.

As to G3BP2 (UniProt Q9UN86), the log2 fold change was inactive: -0.004.

Turning to GBA (UniProt P04062), the log2 fold change is inactive: -0.025.

For the target FUCA1 (UniProt P04066), the log2 fold change is inactive: -0.049.

In the case of GATAD2B (UniProt Q8WXI9), the log2 fold change is inactive: 0.012.

In the case of FREM2 (UniProt Q5SZK8), the log2 fold change is inactive: 0.024.

Regarding FRRS1 (UniProt Q6ZNA5), the log2 fold change was inactive: 0.001.

As for GCC1 (UniProt Q96CN9), the log2 fold change was inactive: 0.004.

On to FXN (UniProt Q16595), for which the log2 fold change is inactive: -0.041.

GABPB1 (UniProt Q06547): the log2 fold change was inactive: -0.012.

Regarding FPGT (UniProt O14772), the log2 fold change was inactive: -0.033.

Consider GALM (UniProt Q96C23), for which the log2 fold change was inactive: 0.003.

With GALNT1 (UniProt Q10472), the log2 fold change is inactive: -0.022.

Regarding GAPDH (UniProt P04406), the log2 fold change was inactive: 0.021.

Consider GFER (UniProt P55789), for which the log2 fold change is inactive: -0.016.

In the case of GFPT1 (UniProt Q06210), the log2 fold change is inactive: -0.014.

As to GART (UniProt P22102), the log2 fold change is inactive: 0.009.

For GALNT12 (UniProt Q8IXK2), the log2 fold change is inactive: 0.011.

With GFM1 (UniProt Q96RP9), the log2 fold change is inactive: 0.04.

With FYB1 isoform 3 (UniProt O15117), the log2 fold change was inactive: -0.01.

Regarding GABARAP (UniProt O95166), the log2 fold change is inactive: -0.006.

On to GCSH (UniProt P23434), for which the log2 fold change was inactive: 0.004.

On to GARS1 (UniProt P41250), for which the log2 fold change is inactive: 0.024.

On to GEMIN6 (UniProt Q8WXD5), for which the log2 fold change was inactive: -0.019.

For the target GALNS (UniProt P34059), the log2 fold change is inactive: 0.015.

For GALE (UniProt Q14376), the log2 fold change is inactive: 0.021.

Regarding FSCN1 (UniProt Q16658), the log2 fold change was inactive: 0.025.

Compound in a further test: CC(C)(C)Cn1c(N)nc2ccc(-c3[nH]c(C(C)(C)C)nc3-c3ccc(F)cc3)nc21 [ralimetinib]
The description is as above. The method in brief: as §1
Regarding FTSJ1 (UniProt Q9UET6), the log2 fold change is inactive: -0.03.

In the case of GCC2 (UniProt Q8IWJ2), the log2 fold change was inactive: 0.008.

As to GALNT7 (UniProt Q86SF2), the log2 fold change was inactive: 0.029.

Turning to GEMIN2 (UniProt O14893), the log2 fold change was inactive: 0.

Consider GANAB isoform 2 (UniProt Q14697), for which the log2 fold change was inactive: 0.002.

Regarding GALNT5 (UniProt Q7Z7M9), the log2 fold change was inactive: -0.028.

For GALNT2 (UniProt Q10471), the log2 fold change is inactive: 0.006.

Consider G3BP2 (UniProt Q9UN86), for which the log2 fold change is inactive: 0.003.

GBA (UniProt P04062): the log2 fold change is inactive: -0.038.

For the target FUCA1 (UniProt P04066), the log2 fold change was inactive: 0.007.

Take GATAD2B (UniProt Q8WXI9): the log2 fold change is inactive: 0.013.

Turning to FREM2 (UniProt Q5SZK8), the log2 fold change was inactive: -0.014.

Take FRRS1 (UniProt Q6ZNA5): the log2 fold change is inactive: -0.001.

Turning to GCC1 (UniProt Q96CN9), the log2 fold change is inactive: 0.019.

Take FXN (UniProt Q16595): the log2 fold change was inactive: -0.044.

Regarding GABPB1 (UniProt Q06547), the log2 fold change was inactive: 0.021.

With FPGT (UniProt O14772), the log2 fold change is inactive: 0.005.

For the target GALM (UniProt Q96C23), the log2 fold change is inactive: 0.008.

As to GALNT1 (UniProt Q10472), the log2 fold change was inactive: 0.001.

For GAPDH (UniProt P04406), the log2 fold change is inactive: -0.006.

Take GFER (UniProt P55789): the log2 fold change is inactive: -0.005.

Turning to GFPT1 (UniProt Q06210), the log2 fold change is inactive: 0.002.

Turning to GART (UniProt P22102), the log2 fold change is inactive: 0.01.

Take GALNT12 (UniProt Q8IXK2): the log2 fold change was inactive: 0.023.

For GFM1 (UniProt Q96RP9), the log2 fold change is inactive: -0.025.

With FYB1 isoform 3 (UniProt O15117), the log2 fold change is inactive: -0.022.

As to GABARAP (UniProt O95166), the log2 fold change was inactive: 0.038.

On to GCSH (UniProt P23434), for which the log2 fold change is inactive: 0.014.

Take GARS1 (UniProt P41250): the log2 fold change is inactive: -0.022.

In the case of GEMIN6 (UniProt Q8WXD5), the log2 fold change was inactive: -0.033.

For GALNS (UniProt P34059), the log2 fold change is inactive: 0.013.

As to GALE (UniProt Q14376), the log2 fold change was inactive: 0.089.

FSCN1 (UniProt Q16658): the log2 fold change is inactive: -0.026.
